{"sequences": {"note": "Chains of the proteins cited; added tags and fusions are not shown.", "UniProt Q0JBA9, entry or part of it": "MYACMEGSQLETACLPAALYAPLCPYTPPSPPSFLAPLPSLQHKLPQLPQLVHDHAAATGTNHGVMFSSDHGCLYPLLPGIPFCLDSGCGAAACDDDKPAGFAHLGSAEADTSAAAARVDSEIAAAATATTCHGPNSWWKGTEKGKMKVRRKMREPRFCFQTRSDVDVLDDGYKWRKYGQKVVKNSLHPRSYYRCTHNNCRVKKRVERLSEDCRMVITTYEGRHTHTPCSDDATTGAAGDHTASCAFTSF"}, "source": "paper PMC7819943", "about": "“Rice protein-binding microarrays: a tool to detect cis-acting elements near promoter regions in rice”", "note": "The list shows a part of the results."}
{"biological_target": "OsWRKY34 (Oryza sativa, UniProt Q0JBA9 1-250)", "assay": "protein-binding microarray (RPBM); PBS, 2% BSA, 51.3 ng/ul salmon testes DNA, 50 uM zinc acetate, 200 nM TF, 25 C, 1 h; high values mean tight binding", "conditions": "protein: recombinant; tags: N-terminal polyhistidine and DsRed monomer fusion (pET32a); label: CyDye5-dUTP incorporated in the synthesized complementary strand; 3' TTTTT single-stranded linker to array surface; dsDNA, one strand shown", "outline": "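Ni–NTA purification followed expression in E. coli BL21-CodonPlus of transcription factors fused N-terminally to a polyhistidine tag and DsRed. At 200 nM in PBS with 2% BSA, salmon testes DNA and 50 µM zinc acetate, the protein was incubated for 1 h at 25 °C with a custom Agilent array that had been primer-extended with Cy5-dUTP and blocked with 2% BSA. After washing, the array was read on an Axon 4000B scanner. The binding signal is per-feature fluorescence intensity in arbitrary units.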"}
{"sequence": "TGCATCATATCCTCGTCGTCGTGGCTGCTTTGCCAGCTTGCGGAGTCACCTAGTGCAG", "binding signal": "8780 fluorescence intensity (a.u.)"}
{"sequence": "TTAGTTGCTCTTACTTTTGCGGGGTTTCGTCCCATAGTTTCGGAGTCACCTAGTGCAG", "binding signal": "11400 fluorescence intensity (a.u.)"}
{"sequence": "CCTAAGCCGTCCGATTCTCCACCATCCCGACGATCCCTCCCGGAGTCACCTAGTGCAG", "binding signal": "8060 fluorescence intensity (a.u.)"}
{"sequence": "CGTCCTTTGCGCCGTCGGCCGACCTCATCCCCACCATTTTCGGAGTCACCTAGTGCAG", "binding signal": "8220 fluorescence intensity (a.u.)"}
{"sequence": "TAACTGTTTGAGAATTTGTGGTTTGCTACTACTACTTGATCGGAGTCACCTAGTGCAG", "binding signal": "8210 fluorescence intensity (a.u.)"}
{"sequence": "CGATAAAGAGACTTTTTTTTTCCTTTTGCTCCTTTTCTTGCGGAGTCACCTAGTGCAG", "binding signal": "8240 fluorescence intensity (a.u.)"}
{"sequence": "CACTCGGCCCAACAACCACCCGCATCCCCACCACCCCACACGGAGTCACCTAGTGCAG", "binding signal": "8460 fluorescence intensity (a.u.)"}
{"sequence": "TGGGGATGGAAGAAGGTGTTGGGCAAGGTCACCAGTCCCGCGGAGTCACCTAGTGCAG", "binding signal": "9750 fluorescence intensity (a.u.)"}
{"sequence": "ATTATCTCCACATTATTTTCATATTATTTAGATATATGCACGGAGTCACCTAGTGCAG", "binding signal": "8220 fluorescence intensity (a.u.)"}
{"sequence": "AGCTGTGTATTTACTCCCTTCTTGAGGGTGCTTTCTTCATCGGAGTCACCTAGTGCAG", "binding signal": "11100 fluorescence intensity (a.u.)"}
{"sequence": "TGCCTGTAGTGGCGGTTGGGGATGCGGATAAGGCGAGGGGCGGAGTCACCTAGTGCAG", "binding signal": "14500 fluorescence intensity (a.u.)"}
{"sequence": "ACTTTTTTTCTCAATCTGTGCTCTTTCACGTGTTTGACTTCGGAGTCACCTAGTGCAG", "binding signal": "11400 fluorescence intensity (a.u.)"}
{"sequence": "TACTCATCTTCCGTTGTCCTATGCTATTTTCTCCAGGGAACGGAGTCACCTAGTGCAG", "binding signal": "9400 fluorescence intensity (a.u.)"}
{"sequence": "GTCGAGGGATGCCCGGTATCTGGTTTTGTGGTTGGGGACGCGGAGTCACCTAGTGCAG", "binding signal": "8730 fluorescence intensity (a.u.)"}
{"sequence": "TCTTCCTTCTTGAGGGACATCTAACCATTGCCCCATTTTTCGGAGTCACCTAGTGCAG", "binding signal": "8020 fluorescence intensity (a.u.)"}
{"sequence": "GTGGTTTCGCTGCTTGGTCATCACTGCTCCGTCGTCGGCTCGGAGTCACCTAGTGCAG", "binding signal": "8110 fluorescence intensity (a.u.)"}
{"sequence": "TCACCATCAGACAGCATTGCTGTGTTTCTACCTGCCTGACCGGAGTCACCTAGTGCAG", "binding signal": "8660 fluorescence intensity (a.u.)"}
{"sequence": "GATCCCCACTGTTTTTTCTTTTCCTTTTGGCCACTCTTTGCGGAGTCACCTAGTGCAG", "binding signal": "10300 fluorescence intensity (a.u.)"}
{"sequence": "TGCTAGATCTGTTTCTACTTGCGTTTGCGTTGCTTGGCAACGGAGTCACCTAGTGCAG", "binding signal": "8500 fluorescence intensity (a.u.)"}
{"sequence": "AGCAATACCGGACAATCCCTCGCGCCATCGAGCTTTCCTCCGGAGTCACCTAGTGCAG", "binding signal": "10800 fluorescence intensity (a.u.)"}
{"sequence": "GGCGGCATCATCCTCATTCATTCAGTTCTTGTTTTGGCCACGGAGTCACCTAGTGCAG", "binding signal": "11900 fluorescence intensity (a.u.)"}
{"sequence": "ACCGTGTCGAACAGCTTCTTCACTATCGCGGAATCACTCACGGAGTCACCTAGTGCAG", "binding signal": "11700 fluorescence intensity (a.u.)"}
{"sequence": "AGCTAGCTCTGCCACCACTGCCATTCTACCTGTATTTTAACGGAGTCACCTAGTGCAG", "binding signal": "8950 fluorescence intensity (a.u.)"}
{"sequence": "CACCGTTGACTTTTTGACCAACGTTTGACCCTTTGTTTTACGGAGTCACCTAGTGCAG", "binding signal": "57700 fluorescence intensity (a.u.)"}
{"sequence": "CAACCGTCTGTTCCTTTTTGGATCAATGGGCCAACGTTGCCGGAGTCACCTAGTGCAG", "binding signal": "12700 fluorescence intensity (a.u.)"}
{"sequence": "GGACCTTCTCGCGGCGCTGCACCTGGACGCGTCGAACCCGCGGAGTCACCTAGTGCAG", "binding signal": "8170 fluorescence intensity (a.u.)"}
{"sequence": "TACTGCTTCAACAGGTCGCTGCAGCTCTCATTATCACGGCCGGAGTCACCTAGTGCAG", "binding signal": "8280 fluorescence intensity (a.u.)"}
{"sequence": "CCTCACTGACCCGCTCTCTCTTCTCTCATCTATATAGGCTCGGAGTCACCTAGTGCAG", "binding signal": "10300 fluorescence intensity (a.u.)"}
{"sequence": "GCTCTTTCTTCATTTCAAAGGAGACCTTAGAATTCTCTTTCGGAGTCACCTAGTGCAG", "binding signal": "8090 fluorescence intensity (a.u.)"}
{"sequence": "TTTTATTAACTGTAAACGTCACATGTTCTGTCATACGCGTCGGAGTCACCTAGTGCAG", "binding signal": "9250 fluorescence intensity (a.u.)"}
{"sequence": "AACGTCCCACACTTCTCCACACCTTACGCGACCCCGAACCCGGAGTCACCTAGTGCAG", "binding signal": "8990 fluorescence intensity (a.u.)"}
{"sequence": "GTGGTCAAGAGCTTTGTTTTCTTTGTCACTTTTCATTATTCGGAGTCACCTAGTGCAG", "binding signal": "10100 fluorescence intensity (a.u.)"}
{"sequence": "GCGACTCCCGTCGTCTCGTCGATTCCCAGTCCGACTCAGTCGGAGTCACCTAGTGCAG", "binding signal": "8330 fluorescence intensity (a.u.)"}
{"sequence": "ATACACATGCACATTTAGTTCCTCCCGGTAAGTTCGTCGTCGGAGTCACCTAGTGCAG", "binding signal": "8260 fluorescence intensity (a.u.)"}
{"sequence": "TGTTTTTGCTTCTCTTCCTTTTGCTGGAGCTTATTGGTTTCGGAGTCACCTAGTGCAG", "binding signal": "10100 fluorescence intensity (a.u.)"}
{"sequence": "CTGCTCTCTCCTCCGCCTGATTCCTCATTCCTCCAACCAGCGGAGTCACCTAGTGCAG", "binding signal": "8540 fluorescence intensity (a.u.)"}
{"sequence": "GGTTGGGCGGGCGAGGAGGTGTGCCACGTCAGAATTTTGCCGGAGTCACCTAGTGCAG", "binding signal": "10100 fluorescence intensity (a.u.)"}
{"sequence": "TGTACTTTTTCCTTGTTGATTTGGGCCTGCATGAATGATTCGGAGTCACCTAGTGCAG", "binding signal": "10600 fluorescence intensity (a.u.)"}
{"sequence": "GTGTAGTGTAGTGTAGTGTAGTGGAGTATGTATCTAATAACGGAGTCACCTAGTGCAG", "binding signal": "10000 fluorescence intensity (a.u.)"}
{"sequence": "TTGTATCTTTCAAAACTTCAGGAGTTTGTTTTTTTTGCACCGGAGTCACCTAGTGCAG", "binding signal": "9460 fluorescence intensity (a.u.)"}
{"sequence": "CCCATTAAATCCCGTCCATTCGTTCGTTTTGATCCTACGGCGGAGTCACCTAGTGCAG", "binding signal": "10100 fluorescence intensity (a.u.)"}
{"sequence": "CCGCGGCGTACTACCCGGTCATCGCTGACCCTCTCCTGCACGGAGTCACCTAGTGCAG", "binding signal": "8470 fluorescence intensity (a.u.)"}
